Reference: article PMC3613372
These are yes or no findings as the source states them, for the method shown. Binding seen in cells or lysates may run through a third protein. Some binding calls cover weakened binding; strength is not graded here.

The chains behind the UniProt entries cited, without tags or fusion partners. Where a name states a change or a piece, a line headed by the entry shows the natural chain unless it says otherwise. Residues count along the entry.
UniProt Q15853: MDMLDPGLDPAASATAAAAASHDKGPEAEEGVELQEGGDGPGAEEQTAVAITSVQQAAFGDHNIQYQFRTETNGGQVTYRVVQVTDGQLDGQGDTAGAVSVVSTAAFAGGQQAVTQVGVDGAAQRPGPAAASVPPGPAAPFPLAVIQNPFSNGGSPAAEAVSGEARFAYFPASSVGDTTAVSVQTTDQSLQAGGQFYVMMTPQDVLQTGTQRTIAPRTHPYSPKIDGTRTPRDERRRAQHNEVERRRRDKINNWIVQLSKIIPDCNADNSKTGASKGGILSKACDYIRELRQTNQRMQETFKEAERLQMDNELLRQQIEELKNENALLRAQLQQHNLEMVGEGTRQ
UniProt P25490: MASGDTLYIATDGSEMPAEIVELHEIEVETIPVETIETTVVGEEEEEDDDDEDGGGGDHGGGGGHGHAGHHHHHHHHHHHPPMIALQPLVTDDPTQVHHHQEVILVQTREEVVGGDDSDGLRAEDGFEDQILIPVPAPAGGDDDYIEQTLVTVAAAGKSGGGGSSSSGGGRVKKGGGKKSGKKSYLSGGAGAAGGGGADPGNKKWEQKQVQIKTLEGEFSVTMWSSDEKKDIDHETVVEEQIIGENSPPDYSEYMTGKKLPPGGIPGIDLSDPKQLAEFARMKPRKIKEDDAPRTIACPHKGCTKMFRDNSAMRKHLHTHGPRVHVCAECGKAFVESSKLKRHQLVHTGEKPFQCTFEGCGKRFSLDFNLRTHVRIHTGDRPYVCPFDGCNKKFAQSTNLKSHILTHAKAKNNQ
UniProt P17676, residues 24-345: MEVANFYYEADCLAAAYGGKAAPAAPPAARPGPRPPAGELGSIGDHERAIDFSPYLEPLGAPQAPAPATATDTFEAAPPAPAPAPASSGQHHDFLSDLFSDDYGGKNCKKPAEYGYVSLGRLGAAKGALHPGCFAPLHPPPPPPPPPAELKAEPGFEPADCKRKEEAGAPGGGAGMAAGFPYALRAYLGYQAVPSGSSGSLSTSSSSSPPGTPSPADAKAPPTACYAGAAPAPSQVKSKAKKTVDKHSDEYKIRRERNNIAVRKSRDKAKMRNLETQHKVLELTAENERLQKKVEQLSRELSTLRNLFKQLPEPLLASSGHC

Legend:
[1] = molecular target: USF2 (human (endogenous in Beas2B)) (UniProt Q15853); assay: co-IP; Beas2B cells in RIPA buffer (50 mM Tris/HCl pH 7.4, 150 mM NaCl, 1% NP40, 0.5% sodium deoxycholate, 0.1% SDS, 5 mM EDTA); IP with 3 µg of specific antibody or non-specific anti-HA (ExactaCruz F kit); western blot; in Figure 7B cells with or without NAF treatment
[2] = molecular target: YY1 (human (endogenous in Beas2B)) (UniProt P25490); assay: as above

| binding [1] | binding [2] | Substance |
| --- | --- | --- |
| binds | – | CCAAT/enhancer binding protein beta (C/EBPβ) (from UniProt P17676-2 1-322) |
| binds | – | YY1 (from UniProt P25490 1-414) |
| – | binds | USF2 (from UniProt Q15853-1 1-346) |
